No constants are given. Whether binding was seen depends on the method and setting. In cells and extracts the contact can be indirect. Binding calls can cover weak binding; strength is not graded here.
Molecular target: T1, Caspase-11 (in transfected cells) (mouse) (UniProt P70343)
T1 sequence: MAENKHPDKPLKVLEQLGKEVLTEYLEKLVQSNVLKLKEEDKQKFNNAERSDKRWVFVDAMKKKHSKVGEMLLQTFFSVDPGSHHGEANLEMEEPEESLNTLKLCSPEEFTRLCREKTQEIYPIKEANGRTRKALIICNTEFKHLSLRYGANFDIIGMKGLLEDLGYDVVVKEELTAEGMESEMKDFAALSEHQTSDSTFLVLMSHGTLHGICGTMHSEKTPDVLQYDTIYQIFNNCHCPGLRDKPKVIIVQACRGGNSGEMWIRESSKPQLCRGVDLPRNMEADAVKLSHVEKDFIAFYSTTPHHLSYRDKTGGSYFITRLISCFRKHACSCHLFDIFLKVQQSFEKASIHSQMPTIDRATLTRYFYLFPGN
Test: co-IP; cells (iBMDM) overexpressing the indicated plasmid combinations, with or without overexpressed P300 or SIRT1; MG132 to inhibit protein degradation

binding: binds
Substance: HA-NEDD4 K33R (mouse)
